Test results: US8012985B2, “Compounds with antiparasitic activity and medicines containing same” (Centre National de la Recherche Scientifique (C.N.R.S.), priority 2002, dated 2011)
Some results were stated once for a whole list of compounds, not compound by compound. For at least one compound, name, drawing or mass did not settle the structure.

Legend:
B. canis = assay: Antibabesia activity in vitro against B. canis; assay type: cell-based
Procedure: (§1) The products 6.0, 22.0, and 2.0 were also evaluated in vitro for their activities against Babesia divergens and B. canis.

Babesia divergens = assay: Antibabesia activity in vitro against Babesia divergens; assay type: cell-based
Procedure: as §1

## C(CCCCCCC1=NCCN1)CCCCCC1=NCCN1 [Compound 6.0, 1,12-bis(imidazolin-2-yl)dodecane]
B. canis
  IC50: < 50 nM
Babesia divergens
  IC50: < 50 nM
